Laboratory results: publication PMC10163288
Some of the results follow.

B1: il2ra_site2_2erj_sap_24_mot_HHH_b1_05499_000000145_0001_23_39_H_._53fd09b27b213caabe775bb65887bf95_0001_0001_0000500019_0000001_0_0001_af2pred_0001_af2pred (protein)
chain: DDAELAELMVKIAAERHNVPSVEVEVHNGELHVTVEGDDEAARRLAERARFAARALGLPYEVTVE
B2: il2ra_site1_3nfp_sap_9_mot_HHH_b1_07334_af2_000000146_0001_22_37_H_._HHH_b1_08366_af2_0001_0000400010_0000001_0_0001_af2pred_0001_af2pred_1 (protein)
chain: SSSSDEEALRRIEELLKEAAKIEDPEEAREVAEEALELAEEAGNERLARKLRRDLEAIERSSSSS
B3: il2ra_site2_2erj_normal_mot_64bd02d26d05ce9f1a62b616cea0b888_0001_af2_000000029_0001_36_49_H_._HHH_b1_08099_0001_0000400004_0000001_0 (protein)
chain: SSSSSDTQELLRLVYELLTEFGLSIEQAEVLAEVAAELLQRGVSEEEIEEILERVAEELSSSSSS
B4: il2ra_site2_3nfp_sap_25_mot_32bc48042d8ba3d1c0734e77886dd373_0001_1_000000143_0001_36_50_H_._HHH_b1_00305_af2_0001_0000100004_0000001_0_0001 (protein)
chain: SSSSSDEREEEVEELLEEAKKIEDEERRRELLARAAQIAFENNNPELFFKVAEVLFKLEQSSSSS
B5: il2ra_site1_1z92_normal_mot_c9a8daa1dfea21d1414aecde54be4f54_0001_1_af2_000000024_0001_32_46_H_._0e4f66a3c4b070984708d3e1d5382b02_0001_1_af2_0001_0000100008_000 … (protein)
chain: NVAERLFEQAEELGVPPRAVVLALVSAVHAEDPRLREEAEELLERVRRGELPPEEAVRLLAELLE
B6: il2ra_site1_1z92_normal_mot_HHH_b1_00226_000000119_0001_43_56_H_._HHH_b1_02233_af2_0001_0000200029_0000001_0 (protein)
chain: SSSSTEASELLWEILEAAEQGDHEKAERLLEEAKELAEELGDEALKRQLEIFERLLEDLKSSSSS
B7: il2ra_site2_3nfp_sap_12_mot_HHH_b1_00159_af2_000000185_0001_1_18_H_._HHH_b1_03255_af2_0001_0000200007_0000001_0_0001 (protein)
chain: SNELAELANEAAQIALRLAKSPDPEAVEVALEIYRLLKEALETSDEEEAKEILEEAVELARRYSS
B8: il2ra_site1_3nfp_normal_mot_HHH_b1_06312_000000199_0001_1_18_H_._HHH_b1_02974_af2_0001_0000100005_0000001_0_af2pred_0001_af2pred (protein)
chain: SSSDLEEIEELIRKAHKLFKNGNLEEAEEVLREAEEIAKEANSEVTEKFIQALLRILERQKSSSS
B9: il2ra_site1_2b5i_normal_mot_f5ff40796168375b462bec8614a1db4a_0001_1_000000138_0001_53_65_H_._HHH_b2_05754_af2_0001_0000200008_0000001_0_af2pred_dldesign_0_af2pr … (protein)
chain: SSSSSKEDKREQVEELLEKARKEKDKNLARKLLLLARRIAKKINDEELIARIDEELAKLGSSSSS
B10: il2ra_site1_3nfp_normal_mot_dc5ea9c2c6cb1649bd85fc05aca2b482_0001_af2_000000257_0001_18_32_H_._HHH_b2_06596_af2_0001_0000300003_0000001_0_af2pred_0001_af2pred (protein)
chain: SSSSDEVEERVRELLEEAEKAAEEGDPRLVAELLREALKLASENQNPELWKLVLRVIRELASSSS

The binders below were run against il2ra, P01589 (assay: yeast display titration).

Row | Binder | apparent Kd
1 | B1 | inactive: no binding seen
2 | B2 | inactive: no binding seen
3 | B3 | inactive: no binding seen
4 | B4 | inactive: no binding seen
5 | B5 | inactive: no binding seen
6 | B6 | inactive: no binding seen
7 | B7 | inactive: no binding seen
8 | B8 | inactive: no binding seen
9 | B9 | inactive: no binding seen
10 | B10 | inactive: no binding seen

For convenience, part of the list above.
Row | Binder | apparent Kd
4 | B4 | inactive: no binding seen
5 | B5 | inactive: no binding seen
